Measurements published in patent US20190315873A1 (AGOMAB THERAPEUTICS, published 2019).
Results are given in words; binding and its absence hold for the method and conditions named. Some entries that bind do so weakly or less than the wild type.

By UniProt entry, the sequences of proteins in these tests, tags left out. Where a name states a change or a piece, a line headed by the entry shows the natural chain unless it says otherwise. Residues count along the entry.
UniProt P08581: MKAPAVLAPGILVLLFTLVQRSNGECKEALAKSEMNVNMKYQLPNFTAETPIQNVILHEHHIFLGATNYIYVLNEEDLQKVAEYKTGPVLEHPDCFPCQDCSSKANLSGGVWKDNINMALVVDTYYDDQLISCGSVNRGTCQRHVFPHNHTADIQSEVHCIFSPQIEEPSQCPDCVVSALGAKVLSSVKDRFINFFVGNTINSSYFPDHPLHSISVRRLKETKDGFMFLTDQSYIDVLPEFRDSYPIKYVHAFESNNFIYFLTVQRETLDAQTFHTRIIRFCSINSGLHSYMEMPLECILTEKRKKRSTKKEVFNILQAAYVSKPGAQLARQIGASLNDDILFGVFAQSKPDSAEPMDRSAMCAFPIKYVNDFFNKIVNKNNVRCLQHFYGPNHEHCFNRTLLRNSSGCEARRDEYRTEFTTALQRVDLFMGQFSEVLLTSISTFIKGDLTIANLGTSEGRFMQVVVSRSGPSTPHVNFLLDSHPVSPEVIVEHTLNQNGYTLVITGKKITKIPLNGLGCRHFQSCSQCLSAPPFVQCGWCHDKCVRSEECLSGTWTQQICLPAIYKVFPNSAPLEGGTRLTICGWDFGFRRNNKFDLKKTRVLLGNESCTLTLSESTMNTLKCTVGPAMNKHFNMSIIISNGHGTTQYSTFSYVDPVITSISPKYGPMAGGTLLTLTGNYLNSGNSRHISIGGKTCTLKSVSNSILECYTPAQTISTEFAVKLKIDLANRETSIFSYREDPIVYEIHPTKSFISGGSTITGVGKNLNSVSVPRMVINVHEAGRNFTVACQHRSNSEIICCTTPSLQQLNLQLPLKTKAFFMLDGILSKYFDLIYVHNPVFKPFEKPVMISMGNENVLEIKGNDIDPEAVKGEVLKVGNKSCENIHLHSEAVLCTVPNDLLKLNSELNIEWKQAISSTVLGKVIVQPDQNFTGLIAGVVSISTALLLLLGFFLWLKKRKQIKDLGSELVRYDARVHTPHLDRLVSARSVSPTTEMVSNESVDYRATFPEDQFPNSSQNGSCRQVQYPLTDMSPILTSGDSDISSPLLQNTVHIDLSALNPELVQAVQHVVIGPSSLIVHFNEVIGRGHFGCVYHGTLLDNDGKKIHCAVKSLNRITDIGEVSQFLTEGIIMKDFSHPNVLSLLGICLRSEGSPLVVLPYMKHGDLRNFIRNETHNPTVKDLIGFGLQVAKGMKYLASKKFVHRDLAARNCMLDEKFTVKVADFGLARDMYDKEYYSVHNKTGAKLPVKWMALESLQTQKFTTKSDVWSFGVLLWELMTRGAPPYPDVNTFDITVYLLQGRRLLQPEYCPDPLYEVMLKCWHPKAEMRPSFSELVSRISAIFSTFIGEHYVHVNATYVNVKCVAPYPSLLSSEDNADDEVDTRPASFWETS
human MET on A549 human lung carcinoma cells: residues 25-1390 of P08581
Decoy MET (the entire human MET ECD): residues 25-932 of P08581
SEMA-PSI-IPT 1-2 (human MET ECD lacking IPT domains 3 and 4): residues 25-741 of P08581
SEMA-PSI (human MET ECD lacking IPT domains 1-4): residues 25-562 of P08581
isolated SEMA domain of human MET: residues 27-515 of P08581
UniProt P16056, residues 25-1379: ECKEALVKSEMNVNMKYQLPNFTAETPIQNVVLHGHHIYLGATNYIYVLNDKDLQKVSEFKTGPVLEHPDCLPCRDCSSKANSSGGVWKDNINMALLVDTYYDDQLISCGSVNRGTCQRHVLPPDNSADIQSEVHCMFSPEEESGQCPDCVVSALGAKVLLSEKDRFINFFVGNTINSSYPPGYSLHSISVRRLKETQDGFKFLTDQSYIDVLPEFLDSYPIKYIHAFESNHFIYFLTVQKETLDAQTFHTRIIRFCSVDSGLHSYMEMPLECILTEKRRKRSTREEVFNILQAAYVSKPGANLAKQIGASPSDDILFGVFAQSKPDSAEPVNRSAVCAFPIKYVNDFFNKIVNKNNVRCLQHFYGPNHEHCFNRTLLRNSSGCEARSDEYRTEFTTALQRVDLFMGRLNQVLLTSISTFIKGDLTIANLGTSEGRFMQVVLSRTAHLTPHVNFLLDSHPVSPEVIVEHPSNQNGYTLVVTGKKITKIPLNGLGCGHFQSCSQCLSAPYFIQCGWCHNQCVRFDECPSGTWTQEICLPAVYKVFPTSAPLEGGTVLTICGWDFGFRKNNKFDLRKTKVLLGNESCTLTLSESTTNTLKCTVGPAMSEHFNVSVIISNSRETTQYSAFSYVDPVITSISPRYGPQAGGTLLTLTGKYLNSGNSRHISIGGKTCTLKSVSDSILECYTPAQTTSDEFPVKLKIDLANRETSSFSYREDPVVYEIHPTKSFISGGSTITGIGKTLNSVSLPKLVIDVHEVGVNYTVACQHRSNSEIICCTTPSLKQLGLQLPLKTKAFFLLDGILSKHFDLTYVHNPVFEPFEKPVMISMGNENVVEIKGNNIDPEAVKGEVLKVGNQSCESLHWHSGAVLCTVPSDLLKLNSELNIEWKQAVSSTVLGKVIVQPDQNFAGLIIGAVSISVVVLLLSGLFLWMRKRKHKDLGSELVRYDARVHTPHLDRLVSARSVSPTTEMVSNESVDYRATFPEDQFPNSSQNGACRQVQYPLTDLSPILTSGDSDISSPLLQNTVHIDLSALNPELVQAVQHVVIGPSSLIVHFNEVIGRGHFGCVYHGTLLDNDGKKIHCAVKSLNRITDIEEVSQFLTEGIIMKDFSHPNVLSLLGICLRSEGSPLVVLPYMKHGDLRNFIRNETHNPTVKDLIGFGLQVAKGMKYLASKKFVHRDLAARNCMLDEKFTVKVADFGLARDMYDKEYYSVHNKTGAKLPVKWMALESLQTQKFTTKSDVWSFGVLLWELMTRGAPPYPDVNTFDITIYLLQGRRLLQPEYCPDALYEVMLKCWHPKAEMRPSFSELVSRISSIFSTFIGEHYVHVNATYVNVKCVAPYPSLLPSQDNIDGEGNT

What was measured:
[1] = target: monkey MET ECD (cynomolgus monkey); assay: ELISA on MET ECD (FIG. 29)
[2] = target: SEMA-PSI (human MET ECD lacking IPT domains 1-4) (human) (UniProt P08581); assay: ELISA on MET deletion mutant
[3] = target: isolated SEMA domain of human MET (human) (UniProt P08581); assay: ELISA on MET deletion mutant
[4] = target: SEMA-PSI-IPT 1-2 (human MET ECD lacking IPT domains 3 and 4) (human) (UniProt P08581); assay: ELISA on MET deletion mutant
[5] = target: Decoy MET (the entire human MET ECD) (human) (UniProt P08581); assay: ELISA on MET deletion mutant
[6] = target: mouse MET on MLP29 mouse liver precursor cells (mouse) (UniProt P16056); assay: flow cytometry, MLP29 cells
[7] = target: human MET on A549 human lung carcinoma cells (human) (UniProt P08581); assay: flow cytometry, A549 cells
[8] = target: monkey MET ECD (cynomolgus monkey); assay: ELISA: MET ECD immobilized (100 ng/well), mAb in human IgG1/lambda format in solution (0-40 nM), HRP anti-human Fc

Measured: binding

B1: 71C3 llama-human chimeric mAb (human IgG1/lambda) (antibody, V domains shown)
VH: QLQLVESGGGLVQPGGSLRLSCAASGFTFSSHAMSWVRQAPGKGLEWVSAINSGGGSTSYADSVKGRFTISRDNAKNTLYLQMNSLKPEDTAVYYCAKELRFDLARYTDYEAWDYWGQGTQVTVSS
VL: SYELTQPSALSVTLGQTAKITCQGGSLGSSYAHWYQQKPGQAPVLVIYDDDSRPSGIPERFSGSSSGGTATLTISGAQAEDEGDYYCQSADSSGNAAVFGGGTHLTVLQ
binds: all assays above

B2: 71A3 llama-human chimeric mAb (human IgG1/lambda) (antibody, V domains shown)
VH: EVQLVESGGGLVQPGGSLRLSCAASGFSFKDYDITWVRQAPGKGLEWVSTITSRSGSTSYVDSVKGRFTISGDNAKNTLYLQMNSLKPEDTAVYYCAKVYATTWDVGPLGYGMDYWGKGTLVTVSS
VL: SYELTQPSALSVTLGQTAKITCQGGSLGSSYAHWYQQKPGQAPVLVIYDDDSRPSGIPERFSGSSSGGTATLTISGAQAEDEGDYYCQSADSSGNAAVFGGGTHLTVLQ
binds: all assays above

B3: 71D4 llama-human chimeric mAb (human IgG1/lambda) (antibody, V domains shown)
VH: ELQLVESGGGLVQPGGSLRLSCAASGFTFSGYGMSWVRQAPGKGLEWVSDINSGGGSTSYADSVKGRFTISRDNAKNTLYLQMNSLKPEDTAVYYCAKDMRLYLARYNDYEAWDYWGQGTQVTVSS
VL: SSALTQPSALSVTLGQTAKITCQGGSLGSSYAHWYQQKPGQAPVLVIYDDDSRPSGIPERFSGSSSGGTATLTISGAQAEDEGDYYCQSADSSGNAAVFGGGTHLTVLQ
binds: all assays above

B4: 76G7 llama-human chimeric mAb (human IgG1/lambda) (antibody, V domains shown)
VH: QVQLVESGGNLVQPGGSLRLSCAASGFTFSNYYMSWVRQAPGKGLEWVSDIYSDGSTTWYSDSVKGRFTISRDNAKNTLSLQMNSLKSEDTAVYYCARVKIYPGGYDAWGQGTQVTVSS
VL: QAGLTQPPSVSGSPGKTVTISCAGNSSDVGYGNYVSWYQQFPGMAPKLLIYLVNKRASGITDRFSGSKSGNTASLTISGLQSEDEADYYCASYTGSNNIVFGGGTHLTVLQ
binds: [2] | [4] | [5] | [6] | [7]

B5: 76H10 llama-human chimeric mAb (human IgG1/lambda) (antibody, V domains shown)
VH: QLQLVESGGGLVQPGGSLRVSCTASGFTFNTYYMTWVRQAPGKGLEWVSDINSGGGTYYADSVKGRFTISRDNAKNTLYLQMNSLKPEDTALYYCVRVRIWPVGYDYWGQGTQVTVSS
VL: QAVVTQEPSLSVSPGGTVTLTCGLSSGSVTTSNYPGWFQQTPGQAPRTLIYNTNNRHSGVPSRFSGSISGNKAALTITGAQPEDEADYYCSLYTGSYTTVFGGGTHLTVLQ
not listed: [3]
binds: all other assays above

B6: 74C8 llama-human chimeric mAb (human IgG1/lambda) (antibody, V domains shown)
VH: EVQLVESGGGLVQPGGSLRLSCAASGFTFRNYHMSWVRQVPGKGFEWISDINSAGGSTYYADSVKGRFTISRDNAKNTLYLEMNSLKPEDTALYYCARVNVWGVNYWGKGTLVSVSS
VL: QTVVTQEPSLSVSPGGTVTLTCGLSSGSVTTSNYPGWFQQTPGQAPRTLIYNTNSRHSGVPSRFSGSISGNKAALTITGAQPEDEADYYCSLYPGSYTNVFGGGTHLTVLQ
not listed: [1] | [8]
binds: all other assays above

B7: 71G12 llama-human chimeric mAb (human IgG1/kappa) (antibody, V domains shown)
VH: QVQLQESGGDLVQPGGSLRVSCVVSGFTFSRYYMSWVRQAPGKGLEWVSSIDSYGYSTYYTDSVKGRFTISRDNAKNTLYLQMNSLKPEDTALYYCARAKTTWSYDYWGQGTQVTVSS
VL: EIVLTQSPSSVTASVGGKVTINCKSSQSVFIASNQKTYLNWYQQRPGQSPRLVISYASTRESGIPDRFSGSGSTTDFTLTISSVQPEDAAVYYCQQAYSHPTFGQGTKVELKR
binds: [2] | [4] | [5] | [6] | [7]

B8: 72F8 llama-human chimeric mAb (human IgG1/lambda) (antibody, V domains shown)
VH: ELQLVESGGGLVQPGGSLRLSCAASGFTFSNYVMSWVRQAPGKGLEWVSDTNSGGSTSYADSVKGRFTISRDNAKNTLYLQMNSLKPEDTALYYCARSFFYGMNYWGKGTQVTVSS
VL: QSALTQPPSLSASPGSSVRLTCTLSSGNNIGSYDISWYQQKAGSPPRYLLNYYTDSRKHQDSGVPSRFSGSKDASANAGLLLISGLQPEDEADYYCSAYKSGSYRWVFGGGTHVTVLQ
not listed: [1] | [8]
binds: all other assays above
